Read-outs that look alike come from different tables or passages of the source. These are yes or no findings as the source states them, for the method shown. In cells and extracts the contact can be indirect. Some results given as binding are weak or reduced against the parent protein; the word gives no strength. For part of these data: Tags and fused reporters may be left off the sequences shown.
What was measured:
[1] = target: Actin-Related Protein-Testis1 (ARP-T1), wild type, tagged with Myc-DDK (human) (UniProt Q8TDG2); test: co-IP
EHD4 tagged with V5 = target: T1, EHD4 tagged with V5 (UniProt Q9H223); test: co-IP
T1 sequence: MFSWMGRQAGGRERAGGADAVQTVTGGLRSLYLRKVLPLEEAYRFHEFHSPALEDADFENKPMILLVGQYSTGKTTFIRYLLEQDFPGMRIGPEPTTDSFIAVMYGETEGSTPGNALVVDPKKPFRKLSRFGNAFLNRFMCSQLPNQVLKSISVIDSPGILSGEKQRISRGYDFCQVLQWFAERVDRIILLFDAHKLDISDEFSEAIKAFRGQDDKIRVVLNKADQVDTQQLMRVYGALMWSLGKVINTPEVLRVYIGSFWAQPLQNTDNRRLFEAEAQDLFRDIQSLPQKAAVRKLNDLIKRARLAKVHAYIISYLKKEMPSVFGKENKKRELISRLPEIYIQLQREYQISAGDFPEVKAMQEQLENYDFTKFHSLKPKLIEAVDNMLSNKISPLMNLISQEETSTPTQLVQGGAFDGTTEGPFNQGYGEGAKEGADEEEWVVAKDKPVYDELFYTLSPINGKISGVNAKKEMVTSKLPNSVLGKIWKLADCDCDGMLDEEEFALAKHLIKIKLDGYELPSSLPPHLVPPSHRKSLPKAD

By UniProt entry, the sequences of proteins in these tests, tags left out.
UniProt Q8TDG2: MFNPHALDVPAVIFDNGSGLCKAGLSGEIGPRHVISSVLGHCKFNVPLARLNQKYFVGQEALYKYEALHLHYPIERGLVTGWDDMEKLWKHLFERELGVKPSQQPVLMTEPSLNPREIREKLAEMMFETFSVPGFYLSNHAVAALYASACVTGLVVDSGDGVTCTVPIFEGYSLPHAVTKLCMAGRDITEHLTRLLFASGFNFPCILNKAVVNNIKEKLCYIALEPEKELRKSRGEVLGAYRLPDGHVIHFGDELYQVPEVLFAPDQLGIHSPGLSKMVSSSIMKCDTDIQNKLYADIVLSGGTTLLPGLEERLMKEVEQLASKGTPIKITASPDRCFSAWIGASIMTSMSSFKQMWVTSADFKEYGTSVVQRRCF
UniProt O95816: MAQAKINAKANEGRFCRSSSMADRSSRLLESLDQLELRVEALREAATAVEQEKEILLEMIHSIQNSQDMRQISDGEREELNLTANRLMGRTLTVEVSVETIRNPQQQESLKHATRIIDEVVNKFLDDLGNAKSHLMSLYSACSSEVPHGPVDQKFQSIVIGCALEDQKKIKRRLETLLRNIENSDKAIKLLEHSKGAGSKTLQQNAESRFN
UniProt P11142: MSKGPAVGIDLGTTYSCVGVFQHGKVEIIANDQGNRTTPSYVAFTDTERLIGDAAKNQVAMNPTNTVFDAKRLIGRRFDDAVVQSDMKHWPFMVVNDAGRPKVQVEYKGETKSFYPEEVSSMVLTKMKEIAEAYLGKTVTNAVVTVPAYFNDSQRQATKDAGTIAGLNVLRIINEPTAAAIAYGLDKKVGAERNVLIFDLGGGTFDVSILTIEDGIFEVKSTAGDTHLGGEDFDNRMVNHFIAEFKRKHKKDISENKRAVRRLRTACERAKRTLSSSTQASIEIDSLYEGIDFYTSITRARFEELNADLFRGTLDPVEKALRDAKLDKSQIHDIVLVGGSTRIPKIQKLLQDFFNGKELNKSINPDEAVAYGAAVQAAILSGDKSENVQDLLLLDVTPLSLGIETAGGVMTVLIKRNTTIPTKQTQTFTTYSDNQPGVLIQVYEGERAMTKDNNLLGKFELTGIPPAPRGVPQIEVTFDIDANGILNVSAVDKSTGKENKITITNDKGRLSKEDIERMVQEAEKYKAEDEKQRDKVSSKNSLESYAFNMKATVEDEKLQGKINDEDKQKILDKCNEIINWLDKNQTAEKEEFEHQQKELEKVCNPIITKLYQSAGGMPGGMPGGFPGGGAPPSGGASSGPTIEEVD
UniProt P50990: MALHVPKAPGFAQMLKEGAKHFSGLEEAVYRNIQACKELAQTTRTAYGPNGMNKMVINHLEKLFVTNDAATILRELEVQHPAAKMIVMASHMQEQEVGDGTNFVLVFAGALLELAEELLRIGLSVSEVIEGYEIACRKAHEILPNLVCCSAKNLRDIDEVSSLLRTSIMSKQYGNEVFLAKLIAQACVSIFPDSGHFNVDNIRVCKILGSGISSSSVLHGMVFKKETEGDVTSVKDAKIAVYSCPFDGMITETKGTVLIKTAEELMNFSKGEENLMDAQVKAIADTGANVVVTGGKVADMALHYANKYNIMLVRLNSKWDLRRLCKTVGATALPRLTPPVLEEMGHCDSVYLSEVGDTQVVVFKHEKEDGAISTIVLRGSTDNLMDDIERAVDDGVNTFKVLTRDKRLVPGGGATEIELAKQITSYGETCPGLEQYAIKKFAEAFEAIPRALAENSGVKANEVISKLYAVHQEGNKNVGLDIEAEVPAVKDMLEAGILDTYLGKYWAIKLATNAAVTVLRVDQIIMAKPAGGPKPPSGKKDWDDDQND

[2] = target: ARP-T1, endogenous (human (endogenous in hTERT-RPE1)) (UniProt Q8TDG2); test: proximity ligation
[3] = target: Actin-Related Protein-Testis1 (ARP-T1), wild type, tagged with Myc-DDK (human) (UniProt Q8TDG2); test: co-IP; remark: listed apart in the source

Molecule: Bcl2-associated athanogen (BAG2) protein (from UniProt O95816 1-211)
- binding [1]: binds

Molecule: heat shock cognate 71 kDa protein (Hsc70) (from UniProt P11142 1-646)
- binding [1]: binds

Molecule: TCP8 (one of 8 subunits of chaperonin-containing T-complex) (from UniProt P50990 1-548)
- binding [1]: binds

Molecule: ARP-T1, endogenous (from UniProt Q8TDG2 1-376)
- binding (EHD4 tagged with V5): binds

B1: EHD4, endogenous (protein, UniProt Q9H223 1-541)
chain: T1 sequence
- binding [2]: binds
- binding [3]: binds

B2: Septin2 (protein, UniProt Q15019 1-361)
chain: MSKQQPTQFINPETPGYVGFANLPNQVHRKSVKKGFEFTLMVVGESGLGKSTLINSLFLTDLYPERVIPGAAEKIERTVQIEASTVEIEERGVKLRLTVVDTPGYGDAINCRDCFKTIISYIDEQFERYLHDESGLNRRHIIDNRVHCCFYFISPFGHGLKPLDVAFMKAIHNKVNIVPVIAKADTLTLKERERLKKRILDEIEEHNIKIYHLPDAESDEDEDFKEQTRLLKASIPFSVVGSNQLIEAKGKKVRGRLYPWGVVEVENPEHNDFLKLRTMLITHMQDLQEVTQDLHYENFRSERLKRGGRKVENEDMNKDQILLEKEAELRRMQEMIARMQAQMQMQMQGGDGDGGALGHHV
- binding [2]: binds
- binding [3]: binds

B3: Septin9 (protein, UniProt Q9UHD8 1-586)
chain: MKKSYSGGTRTSSGRLRRLGDSSGPALKRSFEVEEVETPNSTPPRRVQTPLLRATVASSTQKFQDLGVKNSEPSARHVDSLSQRSPKASLRRVELSGPKAAEPVSRRTELSIDISSKQVENAGAIGPSRFGLKRAEVLGHKTPEPAPRRTEITIVKPQESAHRRMEPPASKVPEVPTAPATDAAPKRVEIQMPKPAEAPTAPSPAQTLENSEPAPVSQLQSRLEPKPQPPVAEATPRSQEATEAAPSCVGDMADTPRDAGLKQAPASRNEKAPVDFGYVGIDSILEQMRRKAMKQGFEFNIMVVGQSGLGKSTLINTLFKSKISRKSVQPTSEERIPKTIEIKSITHDIEEKGVRMKLTVIDTPGFGDHINNENCWQPIMKFINDQYEKYLQEEVNINRKKRIPDTRVHCCLYFIPATGHSLRPLDIEFMKRLSKVVNIVPVIAKADTLTLEERVHFKQRITADLLSNGIDVYPQKEFDEDSEDRLVNEKFREMIPFAVVGSDHEYQVNGKRILGRKTKWGTIEVENTTHCEFAYLRDLLIRTHMQNIKDITSSIHFEAYRVKRLNEGSSAMANGMEEKEPEAPEM
- binding [3]: binds

Source: doi:10.1101/2019.12.16.877498
